{"source": "paper PMC4683533", "about": "“Discovery of novel INK4C small-molecule inhibitors to promote human and murine hematopoietic stem cell ex vivo expansion” (Scientific Reports, 2015)", "tested_on": "HSCs (CD34−LKS cells)", "assay": "single hematopoietic stem cell in vitro culture (nmEM colony) assay", "assay_type": "cell-based, mouse", "conditions": "from ED50 values", "experimental": "We biologically assessed the 22 putative p18SMI compounds for their ability to maintain HSCs stem cell characteristics, to be specific self-renewal and multi-lineage differentiation, using single cell cultures. […] Thus, we employed single HSC culture to assess p18SMI compounds’ effect upon HSCs. CD34^−LKS cells from C57BL/6 mice were individually deposited into a 96-well plate (one cell/well). The single cell was cultured for 14 days in 100 μL of serum-free medium (Gibco) containing 100 ng/mL of mouse stem cell factor (SCF), 10 ng/mL of mouse interleukin-3 (IL-3), 25 ng/mL of human thrombopoietin (TPO), 2 U/mL of human erythropoietin (EPO) and differing concentrations of the p18SMI compound. Cells were cultured 14 days for in vitro colony formation and colonies were then cytospined and analyzed by flow cytometry to test the subpopulation of cultured cells. Neutrophils (n), macrophages (m), erythroblasts (E) or megakaryocytes (M) were identified by the cell marker of Gr-1, Mac-1, Ter-119 and CD41 using flow cytometry. The wells from each group that generated all lineages (nmEM) were counted and the ratio to the control group (DMSO) was calculated.\nSingle CD34^-LKS cells from C57BL/6 mice were individually deposited into each well of a 96-well plate along with 100 μL of serum free medium (Gibco) containing 100 ng/mL of mouse SCF, 10 ng/mL of mouse IL-3, 25 ng/mL of human TPO, 2 U/mL of human EPO and p18SMI compounds (different dilutions). Cells were cultured in a 37 °C, 5% CO2 incubator for 14 days for ex vivo colony formation. Colonies were then cytospined and analyzed using flow cytometry. Neutrophils (n), macrophages (m), erythroblasts (E) or megakaryocytes (M) were identified based on their cell surface maker, Gr-1, Mac-1, Ter119 and CD41. Cells were measured on an FACS analyzer (FACSArray, BD Biosciences). […] The wells from each group that generated all lineages (nmEM) were counted. The ratio of p18SMI compound treatment group to the control group (DMSO-treated) was calculated and fitted to a curve to calculate the ED50 value using GraphPad Prism v6.0."}
{"smiles": "COC(=O)[C@H](NS(=O)(=O)c1ccc(NC(C)=O)cc1)c1ccccc1", "note": "[Compound 22]", "values": [{"measurement": "activity of compound 22 relative to compound 23", "result": "over 1,000 fold"}]}
{"smiles": "CC(=O)Nc1ccc(S(=O)(=O)NCCO)cc1", "note": "[Compound 21]", "values": [{"measurement": "fold higher activity in HSCs compared to XIE18–6", "result": 10, "unit": "fold"}]}
{"smiles": "O=C([O-])c1ccc(S(=O)(=O)NC2CCCCC2)cc1.[Na+]", "note": "[Compound 40, sodium 4-(N-cyclohexylsulfamoyl)benzoate]", "values": [{"measurement": "fold higher activity in HSCs compared to XIE18–6", "result": 20, "unit": "fold"}]}
